Experimental findings from article PMC6944445 are described below.

Amino acid sequences for entries named in this document (tags omitted).
UniProt P34684: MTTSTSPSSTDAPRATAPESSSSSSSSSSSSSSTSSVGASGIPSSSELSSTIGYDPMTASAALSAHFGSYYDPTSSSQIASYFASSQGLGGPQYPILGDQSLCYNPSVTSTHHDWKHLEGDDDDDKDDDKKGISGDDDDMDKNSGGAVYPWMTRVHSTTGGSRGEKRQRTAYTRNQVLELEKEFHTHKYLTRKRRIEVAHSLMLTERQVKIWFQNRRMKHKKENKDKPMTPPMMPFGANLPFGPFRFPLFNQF

This assay addresses T1, Flag-tagged UNC-3 (C. elegans) (UniProt Q93705).
T1 sequence: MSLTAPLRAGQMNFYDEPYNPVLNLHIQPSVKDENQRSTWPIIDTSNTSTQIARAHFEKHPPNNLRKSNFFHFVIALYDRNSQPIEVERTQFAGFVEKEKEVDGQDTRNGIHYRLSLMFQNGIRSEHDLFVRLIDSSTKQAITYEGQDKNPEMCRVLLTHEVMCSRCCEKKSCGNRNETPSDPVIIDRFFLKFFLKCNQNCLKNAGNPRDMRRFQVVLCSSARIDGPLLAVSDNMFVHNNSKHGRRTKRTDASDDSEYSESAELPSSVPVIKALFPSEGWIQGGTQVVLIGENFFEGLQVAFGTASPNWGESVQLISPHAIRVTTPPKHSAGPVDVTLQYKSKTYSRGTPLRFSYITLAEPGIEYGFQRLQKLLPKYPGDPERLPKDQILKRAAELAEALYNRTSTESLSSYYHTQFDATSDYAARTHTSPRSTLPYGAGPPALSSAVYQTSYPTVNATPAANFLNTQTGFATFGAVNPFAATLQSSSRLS
Kind of assay: co-IP; HEK293 cells co-transfected with Flag-tagged UNC-3 and Myc-tagged LIN-39; 100 ug of cell lysate, immunoprecipitation of Flag-UNC-3 with anti-Flag antibody coated beads, western blot with anti-Myc and anti-Flag.

These are yes or no findings as the source states them, for the method shown. Binding seen in cells or lysates may run through a third protein. Sequences can lack the tags named with a protein.

On to “Myc-tagged LIN-39 (from UniProt P34684 1-253)”, for which the binding entry was “no binding”.
